No constants are given. Whether binding was seen depends on the method and setting. Binding seen in cells or lysates may run through a third protein.
Columns and labels:
[1] = biological target: GST-fused amino-terminal SH2 domain of p85 (PI3-K); test: pull-down; 5 µg GST-fusion protein on Sepharose beads incubated 2 h at 4 °C with 200 µg lysate of osteoclasts treated with TNF-α and bone particles for 3-4 h; washed with lysis buffer and cold PBS; immunoblot with LPL and TRAF-6 antibodies; only the target purified
[2] = biological target: GST-fused carboxyl-terminal SH2 domain of p85 (PI3-K); test: as above

B1: L-plastin (LPL) (protein, UniProt Q61233 1-627)
chain: MARGSVSDEEMMELREAFAKVDTDGNGYISCNELNDLFKAACLPLPGYRVREITENLMATGDLDQDGKISFDEFIKVFHGLKSTEVAKTFRKAINKKEGICAIGGTSEQSSVGTQHSYSEEEKYAFVNWINKALENDPDCRHVIPMNPNTDDLFNAVGDGIVLCKMINLSVPDTIDERTINKKKLTPFTIQENLNLALNSASAIGCHVVNIGAEDLKEGKPYLVLGLLWQVIKIGLFADIELSRNEALIALLREGESLEDLMKLSPEELLLRWANYHLENAGCTKITNFSTDIKDSKAYYHLLEQVAPKGDEEGIPAVVIDMSGLREKDDIQRAECMLQQAERLGCRQFVTATDVVRGNPKLNLAFIANLFNKYPALHKPENQDIDWGALEGETREERTFRNWMNSLGVNPRVNHLYSDLSDALVIFQLYEKIKVPVDWNRVNKPPYPKLGGNMKKLENCNYAVDLGKNQAKFSLVGIAGQDLNEGNRTLTLALVWQLMRRYTLNILEDIGGGQKVNDDIIVNWVNTTLKEAQKSSSIASFKDPKISTSLPVLDLIDAIQPGSINYDLLKTENLDDEEKLNNAKYAISMARKIGARVYALPEDLVEVNPKMVMTVFACLMGKGMKRV
- binding [1]: no binding
- binding [2]: no binding

B2: TRAF-6 (protein, UniProt P70196 1-530)
chain: MSLLNCENSCGSSQSSSDCCAAMAASCSAAVKDDSVSGSASTGNLSSSFMEEIQGYDVEFDPPLESKYECPICLMALREAVQTPCGHRFCKACIIKSIRDAGHKCPVDNEILLENQLFPDNFAKREILSLTVKCPNKGCLQKMELRHLEDHQVHCEFALVNCPQCQRPFQKCQVNTHIIEDCPRRQVSCVNCAVSMAYEEKEIHDQSCPLANIICEYCGTILIREQMPNHYDLDCPTAPIPCTFSVFGCHEKMQRNHLARHLQENTQLHMRLLAQAVHNVNLALRPCDAASPSRGCRPEDPNYEETIKQLESRLVRQDHQIRELTAKMETQSMYVGELKRTIRTLEDKVAEMEAQQCNGIYIWKIGNFGMHLKSQEEERPVVIHSPGFYTGRPGYKLCMRLHLQLPTAQRCANYISLFVHTMQGEYDSHLPWPFQGTIRLTILDQSEALIRQNHEEVMDAKPELLAFQRPTIPRNPKGFGYVTFMHLEALRQGTFIKDDTLLVRCEVSTRFDMGGLRKEGFQPRSTDAGV
- binding [1]: no binding
- binding [2]: no binding
